The record followed here is the supplement of paper PMC11060735.

SMILES strings stand for the structures. Structures can show the parent of a compound that is named as a salt. ± gives the standard deviation of the averaged measurements. Whole data set: some 1,800 compounds, median “GFP- (p16Ink4a-) cell count relative to negative-control wells” near 0.99, cut for the lowest 2% near 0.5. This is one part of the list.

For the test, the system named is mouse p16Ink4a+/- lung fibroblasts (INKBRITE, bleomycin-injured). The experiment in a line: GFP- (p16Ink4a-) cell count relative to negative-control wells (fold of vehicle); higher = more p16Ink4a- cells surviving. The following applies: 1 µM; 3 days.
Take `Cc1cc(Cn2cnc3c2C[C@@H](C(=O)O)N(C(=O)C(c2ccccc2)c2ccccc2)C3)ccc1N(C)C`: the GFP- was determined as 1.16.

Consider `NS(=O)(=O)C#Cc1ccccc1` [Pifithrin], for which the GFP- was 1.2.

With `C/C(O)=C(\C#N)C(=O)Nc1ccc(C(F)(F)F)cc1` [Teriflunomide], the GFP- was 0.938. As to `CCOc1cc2ncc(C#N)c(Nc3ccc(F)c(Cl)c3)c2cc1NC(=O)/C=C/CN(C)C` [Pelitinib], the GFP- is 0.891. `O=C(c1ccccc1)c1ccc2n1CCC2C(=O)O` (configuration not stated) [Ketorolac]: the GFP- amounted to 1.03.

Turning to `CC1=CC(=O)c2ccccc2C1=O` [Menadione], the GFP- worked out at 1.02. As for `COc1cc(N2CCC(N3CCN(C)CC3)CC2)ccc1Nc1ncc(Cl)c(Nc2ccccc2S(=O)(=O)C(C)C)n1`, the figure is 1.03; as for `CCS(=O)(=O)c1cccc(-c2cc(C(=O)NC3CCN(C)CC3)c(C)c3[nH]c4ncc(C)cc4c23)c1`, 0.945 ± 0.063; as for `CNC(=O)c1cc(Oc2ccc(NC(=O)Nc3cc(C(C)(C)C)nn3-c3ccc4ncccc4c3)c(F)c2)ccn1` [Rebastinib], 1. With `CCN1CC(CCN2CCOCC2)C(c2ccccc2)(c2ccccc2)C1=O` (configuration not stated) [Doxapram], the GFP- was found to be 1.1. In turn, `N=C(N)NS(=O)(=O)c1ccc(N)cc1` [Sulfaguanidine] returned a GFP- of 0.912. On to `C[C@]12CC[C@H](O)CC1=CCC1C2CC[C@]2(C)C(n3cnc4ccccc43)=CCC12` (some centres not stated) [Galeterone], for which the GFP- was 1.11. In turn, `COc1ccc(-c2ccc3c(N4CCOC[C@@H]4C)nc(N4CCOC[C@@H]4C)nc3n2)cc1CO` had a GFP- of 0.537.

`c1cnc2cc3c(cc2n1)C1CNCC3C1` [Varenicline Tartrate] yielded a GFP- of 0.907. Compound `CC1CNc2c(cccc2S(=O)(=O)N[C@@H](CCCN=C(N)N)C(=O)N2CC[C@@H](C)C[C@@H]2C(=O)O)C1` (some centres not stated) [Argatroban] came in with a GFP- of 1.09.

`C[C@H](CCC(=O)O)[C@H]1CC[C@H]2[C@@H]3C[C@H](O)[C@@H]4C[C@H](O)CC[C@]4(C)[C@H]3CC[C@]12C` [Hyodeoxycholic acid (HDCA)] yielded a GFP- of 0.901.

`C[C@@H](CN1CC(=O)NC(=O)C1)N1CC(=O)NC(=O)C1` [Dexrazoxane]: the GFP- was 0.899.

In turn, `O=C1c2c(O)cccc2[C@H]([C@@H]2O[C@H](CO)[C@@H](O)[C@H](O)[C@H]2O)c2cc(CO)cc(O)c21` [Aloin] had a GFP- of 0.815. For `O=C(Nc1cccc(Cl)c1)c1ccccn1` the value was 0.899; for `O=C1NC(=O)/C(=C/c2ccc3nccc(-c4ccncc4)c3c2)S1`, 0.686. As to `Cc1ccc2c(c1)C(=O)[C@]1(O)CCN(c3ccccc3)C1=N2` [(S)-blebbistatin], the GFP- is 0.867. As for `Cc1ncc([N+](=O)[O-])n1CC(C)O` (configuration not stated) [Secnidazole], the figure is 1.16; as for `C[C@@H]1O[C@@H](O[C@H]2[C@H](Oc3cc(O)c(C(=O)CCc4ccc(O)cc4)c(O)c3)O[C@H](CO)[C@@H](O)[C@@H]2O)[C@H](O)[C@H](O)[C@H]1O` [Naringin Dihydrochalcone], 1.01; as for `NC(=O)c1ncn([C@@H]2O[C@H](CO)[C@@H](O)[C@@H]2O)c1O` [Mizoribine], 1.12. The compound `CS(=O)(=O)N1CCc2c(-c3cnc(N)nc3)nc(N3CCOCC3)nc21` showed a GFP- of 0.715.

Take `CN1CCN(C(=O)c2cc3cc(Cl)ccc3[nH]2)CC1`: the GFP- turned out to be 1.05. Compound `O=c1cc(-c2ccc(O)c(O)c2)oc2cc(O)cc(O)c12` [Luteolin] gave a GFP- of 0.833. Compound `Cc1cc(C)nc(NS(=O)(=O)c2ccc(N)cc2)n1` [Sulfamethazine] returned a GFP- of 0.853. Take `Cn1c(=O)cc(N2CCC[C@@H](N)C2)n(Cc2cc(F)ccc2C#N)c1=O` [Trelagliptin]: the GFP- amounted to 0.941. Turning to `CN1CCN(CCOc2cc(OC3CCOCC3)c3c(Nc4c(Cl)ccc5c4OCO5)ncnc3c2)CC1` [Saracatinib], the GFP- turned out to be 0.812. In turn, `c1ccc(NCc2ccc(CNc3ccccn3)cc2)nc1` displayed a GFP- of 1.06. As for `O=C(Nc1cc(C(F)(F)F)ccc1N1CCCCC1)c1ccncc1`, the figure is 1.17; as for `CO[C@H]1C[C@@H]2CC[C@@H](C)[C@@](O)(O2)C(=O)C(=O)N2CCCC[C@H]2C(=O)O[C@H]([C@H](C)C[C@@H]2CC[C@@H](O)[C@H](OC)C2)CC(=O)[C@H](C)/C=C(\C)[C@@H](O)[C@@H](OC)C(=O)[C@H](C)C[C@H](C)/C=C/C=C/C=C/1C` [Rapamycin], 0.71; as for `Cc1cc(C)c2c(c1)[C@@H](N(Cc1cc(C(F)(F)F)cc(C(F)(F)F)c1)c1nnn(C)n1)CCCN2C[C@H]1CC[C@H](C(=O)O)CC1` [Evacetrapib], 0.993. As for `Cc1ccc(N(CC2=NCCN2)c2cccc(O)c2)cc1` [Phentolamine], the figure is 0.958; as for `COc1cc(-c2cc(-c3cccc(O)c3)cnc2N)cc(OC)c1OC`, 0.951; as for `O=c1cc(N2CCOCC2)oc2c(-c3cccc4c3sc3ccccc34)cccc12`, 0.967. `Cc1nc(N)sc1-c1ccnc(Nc2ccc(N3CCOCC3)cc2)n1` gave a GFP- of 0.57 ± 0.078. As for `O=c1ccc2ccc(O)c(O)c2o1` [Daphnetin], the figure is 1.02; as for `O=c1ccc2ccccc2o1`, 1.09. In turn, `Cc1nc(C(=O)NCC(=O)O)c(O)c2ccc(Oc3ccccc3)cc12` returned a GFP- of 0.913 ± 0.055.

`CC(C)n1c(/C=C/[C@@H](O)C[C@@H](O)CC(=O)O)c(-c2ccc(F)cc2)c2ccccc21` [Fluvastatin]: the GFP- was 0.656. `COc1ccc([C@H]2CNC(=O)C2)cc1OC1CCCC1` [(S)-Rolipram] yielded a GFP- of 0.954.

Compound `OCCn1cc(-c2ccc3c(c2)CC/C3=N\O)c(-c2ccncc2)n1` displayed a GFP- of 1.28. The compound `N#CC(c1ccc(Cl)cc1)c1c(Cl)cc(-n2ncc(=O)[nH]c2=O)cc1Cl` (configuration not stated) [Diclazuril] had a GFP- of 1.1. `CCCCc1ncc(/C=C(\Cc2cccs2)C(=O)O)n1Cc1ccc(C(=O)O)cc1` [Eprosartan]: the GFP- amounted to 0.961.

On to `OCc1ccccc1O[C@@H]1O[C@H](CO)[C@@H](O)[C@H](O)[C@H]1O` [Salicin], for which the GFP- amounted to 0.937. Turning to `COc1cc(OC)c(NC(=O)Nc2cc(C)on2)cc1Cl`, the GFP- amounted to 1.01.

Turning to `COc1cc(NC(=O)c2ccccn2)ccc1Cl`, the GFP- was determined as 1.08. `CC(C)(CO)[C@@H](O)C(=O)NCCC(=O)O` [Pantothenic Acid] yielded a GFP- of 0.992. In the case of `Cc1ccc(S(=O)(=O)Cc2nc(-c3ccc(C(=O)NCc4cccnc4)cc3)oc2C)cc1`, the GFP- came out at 0.921. With `FC(F)(F)c1ccc(/C=C/c2nc(COc3ccc(CCCCn4ccnn4)cc3)co2)cc1` [Mubritinib], the GFP- stood at 1.02.
